Source: article PMC5355267
No constants are given. Whether binding was seen depends on the method and setting. In cells and extracts the contact can be indirect. Some entries that bind do so weakly or less than the wild type.

The chains behind the UniProt entries cited, without tags or fusion partners. Residues count along the entry.
UniProt P06756, residues 31-1048: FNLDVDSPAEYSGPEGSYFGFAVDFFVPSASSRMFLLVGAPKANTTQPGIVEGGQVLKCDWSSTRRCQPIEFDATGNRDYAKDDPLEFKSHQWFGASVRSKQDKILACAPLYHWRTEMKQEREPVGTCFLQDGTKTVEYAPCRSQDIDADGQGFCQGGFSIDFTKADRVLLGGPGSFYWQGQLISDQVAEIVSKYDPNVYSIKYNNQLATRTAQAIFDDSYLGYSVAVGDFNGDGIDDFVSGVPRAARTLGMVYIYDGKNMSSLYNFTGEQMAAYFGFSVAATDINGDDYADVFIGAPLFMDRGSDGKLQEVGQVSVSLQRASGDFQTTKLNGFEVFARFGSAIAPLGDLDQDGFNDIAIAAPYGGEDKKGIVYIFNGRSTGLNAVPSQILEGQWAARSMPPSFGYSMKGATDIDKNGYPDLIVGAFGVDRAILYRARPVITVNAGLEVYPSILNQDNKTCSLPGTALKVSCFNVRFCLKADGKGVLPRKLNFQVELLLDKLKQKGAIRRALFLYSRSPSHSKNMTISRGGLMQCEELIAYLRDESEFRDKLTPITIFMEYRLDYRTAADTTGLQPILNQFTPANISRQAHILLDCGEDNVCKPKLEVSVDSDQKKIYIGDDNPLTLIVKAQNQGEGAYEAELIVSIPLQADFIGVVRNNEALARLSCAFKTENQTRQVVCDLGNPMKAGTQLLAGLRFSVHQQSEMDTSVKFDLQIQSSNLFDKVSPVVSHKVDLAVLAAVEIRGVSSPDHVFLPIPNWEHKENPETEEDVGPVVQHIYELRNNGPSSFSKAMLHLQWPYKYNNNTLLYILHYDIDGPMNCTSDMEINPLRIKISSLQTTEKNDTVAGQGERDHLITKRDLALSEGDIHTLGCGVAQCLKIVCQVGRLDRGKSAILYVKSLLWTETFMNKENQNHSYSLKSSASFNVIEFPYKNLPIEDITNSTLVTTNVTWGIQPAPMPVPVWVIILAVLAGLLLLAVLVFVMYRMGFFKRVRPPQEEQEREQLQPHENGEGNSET
UniProt Q03405, residues 23-305: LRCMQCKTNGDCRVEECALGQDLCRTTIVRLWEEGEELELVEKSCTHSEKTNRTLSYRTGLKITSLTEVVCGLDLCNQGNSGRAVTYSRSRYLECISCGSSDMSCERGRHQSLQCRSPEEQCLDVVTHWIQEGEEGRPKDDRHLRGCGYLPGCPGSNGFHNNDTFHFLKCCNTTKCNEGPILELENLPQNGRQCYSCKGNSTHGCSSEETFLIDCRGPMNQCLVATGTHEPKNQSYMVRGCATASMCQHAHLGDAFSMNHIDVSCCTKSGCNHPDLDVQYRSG

Molecular target: integrin αV (human (endogenous in A549)) (UniProt P06756)
Assay: co-IP; A549 cells incubated with GST or DP2 at 3 ug/mL for 24 h, lysed; clarified lysates immunoprecipitated with antibody to integrin alphaV, blotted for uPAR and integrin alphaV

binding: binds
Substance: urokinase-type plasminogen activator receptor (uPAR) (from UniProt Q03405 23-305)
